Experimental data published in US12492195B2, “Preparation method for and crystal form of 3-aryloxy-3-five-membered heteroaryl-propylamine compound” (Zhangzhou Pien Tze Huang Pharmaceutical Co., Ltd., priority 2020, dated 2025).
Some results were stated once for a whole list of compounds, not compound by compound. For some assays here: At least one compound was matched to its structure with a doubt left. Some ranges recur; such a range may be that of the whole group of compounds.

Sequences of proteins named here, by UniProt entry; tags and fusion partners are left off.
UniProt Q8BLA8, whole entry: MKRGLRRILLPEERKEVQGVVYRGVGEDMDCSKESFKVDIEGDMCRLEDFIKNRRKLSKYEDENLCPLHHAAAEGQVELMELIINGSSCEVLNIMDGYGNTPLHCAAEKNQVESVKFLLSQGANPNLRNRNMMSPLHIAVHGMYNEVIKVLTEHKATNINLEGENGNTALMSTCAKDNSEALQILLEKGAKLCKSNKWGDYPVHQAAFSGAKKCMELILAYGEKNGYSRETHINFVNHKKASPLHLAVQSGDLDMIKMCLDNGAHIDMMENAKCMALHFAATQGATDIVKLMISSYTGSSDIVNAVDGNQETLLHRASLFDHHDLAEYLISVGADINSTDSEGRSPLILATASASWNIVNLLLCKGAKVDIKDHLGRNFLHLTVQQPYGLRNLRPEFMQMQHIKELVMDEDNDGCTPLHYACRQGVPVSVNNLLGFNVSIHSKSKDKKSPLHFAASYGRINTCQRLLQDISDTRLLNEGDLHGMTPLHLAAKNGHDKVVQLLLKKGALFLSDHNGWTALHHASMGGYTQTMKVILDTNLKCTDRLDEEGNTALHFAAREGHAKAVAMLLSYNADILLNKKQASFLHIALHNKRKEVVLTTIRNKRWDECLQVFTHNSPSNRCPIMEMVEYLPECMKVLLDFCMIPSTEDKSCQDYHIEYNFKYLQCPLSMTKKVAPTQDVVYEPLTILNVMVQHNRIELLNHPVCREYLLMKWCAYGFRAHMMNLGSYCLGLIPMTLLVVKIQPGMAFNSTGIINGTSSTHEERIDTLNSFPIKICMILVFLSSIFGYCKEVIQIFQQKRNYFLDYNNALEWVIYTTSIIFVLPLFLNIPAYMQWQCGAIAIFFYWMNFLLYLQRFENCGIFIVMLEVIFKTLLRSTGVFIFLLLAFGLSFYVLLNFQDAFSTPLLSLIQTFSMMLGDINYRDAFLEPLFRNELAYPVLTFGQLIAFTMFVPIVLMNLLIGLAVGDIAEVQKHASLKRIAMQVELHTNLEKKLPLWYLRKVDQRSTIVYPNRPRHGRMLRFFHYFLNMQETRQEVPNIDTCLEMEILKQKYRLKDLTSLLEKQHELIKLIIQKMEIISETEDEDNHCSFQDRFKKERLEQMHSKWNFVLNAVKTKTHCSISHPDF

Key:
[1] = Hygroscopicity test by dynamic moisture absorption (DVS); assay type: physicochemical; details: 25° C./80RH
Procedure: Dynamic moisture adsorption (DVS) analysis: the instrument is a DVS Intrinsic produced by SMS company (Surface Measurement Systems); temperature, 25° C.; carrier gas, flow rate: nitrogen, 200 ml/min; mass change per unit time: 0.002%/min: relative humidity range: 0/oRH-95% RH.
Dynamic moisture absorption (DVS) was used to test their hygroscopicity.

TRPA1 = biological target: T1, TRPA1 (Mus musculus, UniProt Q8BLA8); experiment: IonWorks Barracuda (IWB) automated patch clamp detection of TRPA1 inhibitory activity; assay type: cell-based
T1 construct: expressed in transfected cells
Procedure: IonWorks Barracuda (IWB) automated patch clamp detection was used as test method: HEK293 cells stably expressing TRPA1 were placed in the T175 culture flask with DMEM medium containing 15 μg/mL Blasticidin S HCl, 200 μg/mL Hygromycin B and 10% FBS, and cultured in an incubator in 5% CO2 at 37° C. When the cell density reached about 80%, the culture medium was removed, the residue was rinsed once with phosphate buffered saline (PBS) without calcium and magnesium. 3 mL of Trypsin was added to digest for 2 min, 7 mL of culture medium was added to terminate the digestion. The cells were collected to 15 mL centrifuge tube and centrifuged at 800 rpm for 3 min. After the supernatant was removed, the cells were added to appropriate volume of extracellular fluid for re-suspending, and the cell density was controlled at 2-3×10^6/mL for IWB experiment. The formulation of extracellular fluid (in mM) was 140 NaCl, 5 KCl, 1 MgCl2, 10 HEPES, 0.5 EGTA, 10 Glucose (pH 7.4); the formulation of intracellular fluid (in mM) was 140 CsCl, 10 HEPES, 5 EGTA, 0.1 CaCl2), 1 MgCl2 (pH 7.2). 28 mg/mL of amphotericin B was freshly prepared with DMSO on the day of experiment, and then final concentration of 0.1 mg/mL of that was prepared with intracellular fluid.
Population patch clamp (PPC) plate was used in IWB experiment. The entire detection process was automatically carried out by the instrument. That is, extracellular fluid was added into 384 wells of PPC plate, and after the intracellular fluid was added into plenum (under the PPC plate), 6 µL of cell fluid was added for sealing test, and finally the intracellular fluid in plenum was replaced with amphotericin B-containing intracellular fluid, thereby establishing a whole-cell recording mode after perforating sealed cells. The sampling frequency for recording TPRAI current was 10 kHz, the cells were clamped at 0 mV, the voltage stimulation command (channel protocol) was a ramp voltage from −100 mV to +100 mV in 300 ms. This voltage stimulation was applied every 10 s, mTRPAl current was induced by 300 µM AITC.
The record of data and the export of current amplitude measurement were carried out by IWB software (version 2.5.3, Molecular Devices Corporation. Union City, CA). No statistics was recorded for wells with sealing impedance lower than 20 MΩ. The original current data was corrected by software for leakage reduction. TRPA1 current amplitude was measured at ±100 mV. […] If IC50 value of HC030031 exceeded 3 times the average IC50 value previously obtained on each plate, it would be re-tested. The dose-effect curve of compounds and IC50 were fitted and calculated by GraphPad Prism 5.02 (GraphPad Software, San Diego, CA).

Structure (SMILES) | weight change (DVS) [1] | ratio of the IC50 of S configuration of duloxetine to the IC50 of the compound (TRPA1)
CNCC[C@@H](Oc1cccc2ccoc12)c1cccs1 [Form A] | less than 0.2% | –
CNCC[C@H](Oc1cccc2ccoc12)c1cccs1 [IC-1, (S)-3-(Benzofuran-7-yloxy)-N-methyl-3-(thiophen-2-yl)propan-1-amine] | – | 2.8-6.8
CNCC[C@H](Oc1cccc2ccoc12)c1ccoc1 [IC-3, (S)-3-(Benzofuran-7-yloxy)-N-methyl-3-(furan-3-yl)propan-1-amine] | – | 2.8-6.8
CNCC[C@H](Oc1cccc2c1CCC2)c1cccs1 [IC-10] | – | 2.8-6.8
NCC[C@H](Oc1cccc2ccoc12)c1cccs1 [IC-23, (S)-3-(benzofuran-7-yloxy)-3-(thiophen-2-yl)propan-1-amine] | – | 2.8-6.8
